Measured values published in article doi:10.1101/2022.12.23.521429v4, “Structural perspective on the design of selective DYRK1B inhibitors” (biorxiv, 2025).

Key:
[1] = target: T1, DYRK1B kinase domain (78-442) (Homo sapiens, UniProt Q9Y463); assay: isothermal titration calorimetry; conditions: read-out: binding affinity
T1 construct: kinase domain 78-442, C-terminal TEV site and His-tag (ENLYFQ*GHHHHHH), His-tag cleaved by TEV; E. coli LOBSTR; Tyr273 autophosphorylated

[2] = target: T1, DYRK1B kinase domain (78-442); assay: ADP-Glo kinase activity assay; format: biochemical

COc1cc(N2CCN(C)CC2)ccc1Nc1nccc(-c2cn(C)c3cnccc23)n1 [AZ191]
Kd [1]: 28 nM
IC50 [2]: 66 nM
